Test results from PMC11695938.

Columns and labels:
[1] = target: FNDC1 (His-tagged, expressed in C2C12 cells) (mouse); experiment: co-IP; C2C12 cells transfected, 48 h after differentiation, lysed; total proteins immunoprecipitated with His or Flag magnetic beads at 4 °C overnight; immunoblot
[2] = target: FNDC1, in primary myoblasts (mouse); experiment: co-IP; immunoprecipitation in primary myoblasts

binding [1]: no binding
B1: Integrin αv (ITGAV), in C2C12 cells (receptor, UniProt P43406 31-1044)
chain: FNLDVESPAEYAGPEGSYFGFAVDFFEPSTSSRMFLLVGAPKANTTQPGIVEGGQVLKCECSSSRRCQPIEFDSTGNRDYAKDDPLEFKSHQWFGASVRSKQDKILACAPLYHWRTEMKQEREPVGTCFLQDGTKTVEYAPCRSKNIDADGQGFCQGGFSIDFTKADRVLLGGPGSFYWQGQLISDQVAEIISKYDPNVYSIKYNNQLATRTAQAIFDDSYLGYSVAVGDFNGDGIEDFVSGVPRAARTLGMVYIYDGKNMSSLHNFTGEQMAAYFGFSVAATDINGDDYADVFIGAPLFMDRGSDGKLQEVGQVSVSLQRAVGDFQTTKLNGFEVFARFGSAIAPLGDLDQDGFNDIAIAAPYGGEDKKGLVYIFNGRSTGLNSVPSQILEGQWAAQSMPPSFGYSMKGATDVDRNGYPDLVVGAFGVDRAVLYRARPVVTVNAGLEVYPSILNQDNKICPLPGTALKVSCFNVRFCLKADGKGTLPRKLHFQVELLLDKLKQKGAIRRALFLHNRSPVHSKTMTVFRGGQMQCEELVAYLRDESEFRDKLTPITIFMEYRLDQRTAADATGLQPILNQFTPANVSRQAHILLDCGEDNVCKPKLEVSVNSDQKKIYIGDDNPLTLTVKAQNQGEGAYEAELIVSIPPQADFIGVVRNNEALARLSCAFKTENQTRQVVCDLGNPMKAGTQLLAGLRFSVHQQSEMDTSVKFDLKIQSSNSFDNVSPVVSYKVDLAVLAAVEIRGVSSPDHIFLPIPNWEYKENPETEEDVGPIVQHIYELRNNGPSSFSKAILNLQWPYKYNNNTLLYILHYDIDGPMNCTADTEINPLRIKTPEKNDTAAAGQGERNHLITKRDLTLREGDVHTLGCGIAKCLQITCQVGRLDRGKSAILYVKSLLWTETFMNKENQNHSYSLKSSASFNIIEFPYKNLPIEDLFNSTLVTTNITWGIQPAPMPVPVWVIILAVLAGLLLLAVLVFVMYRMGFFKRVRPPQEEQEREQLQPHENGEGNSET

binding [2]: no binding
B2: Integrin αv (ITGAV), in primary myoblasts (receptor, UniProt P43406 31-1044)
chain: B1 chain

Results are given in words; binding and its absence hold for the method and conditions named. Binding seen in cells or lysates may run through a third protein. Each block holds one binder with its values, some of them ahead of it.
